This is an account of results in PubChem BioAssay AID2685 (National Center for Advancing Translational Sciences (NCATS), 2010).

Molecules are shown by their SMILES. This is one part of the list. Some results for these compounds are left out of this collection, so the calls shown say nothing about other tests.

The nature of the experiment: qHTS Assay for Lipid Storage Modulators in Drosophila S3 Cells. The settings on record: BODIPY lipid droplet fluorescence, 18-24 h, measured here: cell count max response, cells fed with added oleic acid. A general note: Quantitative high-throughput screening tests each substance at several concentrations.
For `CN(C)c1ccc(C(=O)NCC2(N(C)C)CCCCC2)cc1`, the cell number change is -1.39%. Consider `CN(C)C1CCCC1OC(=O)C(O)(c1ccccc1)c1ccccc1` (centres undefined), for which the cell number change turned out to be 8.24%. For the compound `CCN1CCCC(OC(=O)C2(O)c3ccccc3C=Cc3ccccc32)C1` (centres undefined), the cell number change was -9.18%.

For the compound `O=C(NCC1(N2CCCCC2)CCCCC1)c1cccc(Br)c1`, the cell number change is -9.21%. As for `COc1ccc(C(=O)NCC2(N(C)C)CCCCC2)cc1`, the cell number change stood at 17.1%. As to `O=C(NCC1(N2CCCCC2)CCCCC1)c1cc([N+](=O)[O-])ccc1Cl`, the cell number change worked out at 19.7%. Take `COc1cc(SC)ccc1C(=O)NCC1(N(C)C)CCCCC1`: the cell number change stood at 25.2%. Next, `COc1ccc(Br)c(C(=O)NCC2(N3CCCCC3)CCCCC2)c1`: 1.23%; `CC(C)Oc1ccc(C(=O)NCC2(N(C)C)CCCCC2)cc1`: 0.213%.
